In PMC7094862:
These are yes or no findings as the source states them, for the method shown. In cells and extracts the contact can be indirect. Some results given as binding are weak or reduced against the parent protein; the word gives no strength. Tags and fused reporters may be left off the sequences shown.

Sequences of proteins named here, by UniProt entry; tags and fusion partners are left off.
UniProt Q99836: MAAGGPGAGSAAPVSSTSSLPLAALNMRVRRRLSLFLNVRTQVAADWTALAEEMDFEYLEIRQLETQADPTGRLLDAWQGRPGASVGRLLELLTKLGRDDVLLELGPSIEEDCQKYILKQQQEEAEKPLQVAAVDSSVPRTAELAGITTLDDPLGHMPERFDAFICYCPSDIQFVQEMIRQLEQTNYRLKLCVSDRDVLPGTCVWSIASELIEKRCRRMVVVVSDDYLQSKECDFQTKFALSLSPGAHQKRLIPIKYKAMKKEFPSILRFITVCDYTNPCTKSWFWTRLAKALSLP

Biological target: T1, SIGIRR-FLAG (UniProt Q6IA17)
T1 sequence: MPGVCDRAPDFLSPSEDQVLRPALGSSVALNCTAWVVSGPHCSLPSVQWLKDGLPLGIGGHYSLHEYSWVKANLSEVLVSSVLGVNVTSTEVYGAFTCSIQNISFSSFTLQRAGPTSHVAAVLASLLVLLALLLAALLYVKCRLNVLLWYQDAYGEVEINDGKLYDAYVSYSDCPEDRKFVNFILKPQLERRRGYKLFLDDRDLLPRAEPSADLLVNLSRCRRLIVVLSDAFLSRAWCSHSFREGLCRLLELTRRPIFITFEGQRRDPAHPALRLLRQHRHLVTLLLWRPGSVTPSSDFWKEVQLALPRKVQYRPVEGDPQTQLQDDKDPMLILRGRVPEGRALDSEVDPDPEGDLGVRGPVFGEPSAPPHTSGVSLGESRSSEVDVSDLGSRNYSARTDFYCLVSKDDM
Assay: co-IP; HeLa cells co-transfected with MyD88-HA and SIGIRR-FLAG, uninfected or infected with C. trachomatis LGV/L2 (MOI 1, 24 h); lysates on ANTI-FLAG M2 resin overnight at 2-8°C; immunoblot with anti-HA

MyD88-HA (from UniProt Q99836 1-296)
binding: binds
